The target of test [1] is Na+/K+-ATPase alpha 3 subunit (ATP1a3), human (human (endogenous in newborn brain tissue)) (UniProt P13637). Kind of test: proximity ligation; Duolink PLA of BECN1 and ATP1a3 on deparaffinized autoptic brain sections (CA3 hippocampus) of human newborns, control and HIE cases.
The target of test [2] is Na+/K+-ATPase alpha 3 subunit (ATP1a3), rat (rat (endogenous in primary cortical neurons and pup hippocampus)) (UniProt P06687). Kind of test: proximity ligation; Duolink PLA of BECN1 and ATP1a3 on fixed rat primary cortical neurons; Tat-BECN1 or Tat-sc for 3 h, KaHx or CTw for 3 h.
The target is the same in test [3]. Kind of test: co-IP; hippocampal extracts of P7 rat pups (sham, 6 h and 24 h after hypoxia-ischemia), IP with anti-ATP1a3, immunoblot of BECN1; neriifolin injection also tested. Background: A western blot detects proteins with antibodies after separation by electrophoresis.
Test [4] has the same target. The experiment in a line: proximity ligation; Duolink PLA of BECN1 and ATP1a3 on brain sections (CA3 hippocampus) of rat pups, sham and 6 h and 24 h after hypoxia-ischemia; neriifolin injection also tested.
For test [5] the target is unchanged. Kind of test: co-IP; lysates of rat primary cortical neurons (500 ug protein), IP with anti-ATP1a3 overnight at 4 °C, Protein G Dynabeads, immunoblot of BECN1; cells treated with Tat-BECN1 or Tat-sc for 3 h, or KaHx or CTw for 3 h; digoxin treatment also tested.

These are yes or no findings as the source states them, for the method shown. In cells and extracts the contact can be indirect. Some entries that bind do so weakly or less than the wild type.

With “BECLIN1 (BECN1), human (from UniProt Q14457 1-450)”, the binding result in test [1] is reported as “binds”.

On to “BECLIN1 (BECN1), rat (from UniProt Q91XJ1 1-448)”, for which the binding entry in test [2], in test [3], in test [4] and in test [5] was “binds” throughout.

Source of the values: PMC11127954.
